Experimental data taken from article PMC10452847 (Cancers, 2023).

Assays:
RMS559 cells [1] = test: cells; details: Homo sapiens, 72 h, read-out: EC50 (viability)
[2] = 25 mg/kg oral gavage, single dose; SCMC tumor-bearing mice
[3] = test system: 7250 normal human fibroblast cell line; test: cells; details: 72 h, read-out: EC50 (viability)
Ba/F3 TEL-FGFR4 cells [4] = details: 1 ng/mL of IL-3 added to medium
Ba/F3 TEL-FGFR4 cells [5] = test: cells; details: Mus musculus, BaF3, read-out: EC50 (cell killing)
SCMC cells = test: cells; details: Homo sapiens, 72 h, read-out: EC50 (viability)
RH4 cells [6] = test: cells; details: Homo sapiens, Rh4, 72 h, read-out: EC50 (viability)
RMS559 cells [7] = details: 24 h post-treatment
RH4 cells [8] = details: 24 h post-treatment

C=CC(=O)N1CC[C@H](n2nc(C#Cc3cc(OC)cc(OC)c3)c3c(N)ncnc32)C1 [futibatinib]
EC50 (RMS559 cells [1]): 0.48 µM
time at which concentration in plasma peaks [2]: 1 h
EC50 [3]: 32 µM
effect of IL-3 on killing by futibatinib (Ba/F3 TEL-FGFR4 cells [4]): prevents futibatinib from killing Ba/F3 TEL-FGFR4 cells
EC50 (Ba/F3 TEL-FGFR4 cells [5]): 0.00133 µM
EC50 (SCMC cells): 11.7 µM
EC50 (RH4 cells [6]): 6.64 µM
caspase 3/7 activity compared to DMSO control (RMS559 cells [7]): significant increase
caspase 3/7 activity compared to DMSO control (RH4 cells [8]): significant increase
